Source: article PMC11223215, “Metronidazole Interaction with Cu^2+ and Zn^2+: Speciation Study in Aqueous Solution and Biological Activity Evaluation” (ACS Omega, 2024)
In brackets after ≈: the same amount, converted by molar mass.

Legend:
Aspergillus fumigatus = experiment: In vitro activity against A. fumigatus; format: cell-based
Description: (§1) The assays were performed at 37 °C in sterile 96-well microtiter plates, each well containing 10 μL of aqueous compound together with a bacterial/fungal/MRC-5 inoculum (190 μL; 5 × 10^3 CFU/mL). The compounds were tested at 64, 16, 4, 1, and 0.25 μ-mol L^–1. Bacterial/fungal/MRC-5 growth was compared to untreated-control wells (100% growth) and medium-control wells (0% cell growth). After 3 days of incubation, 50 μL of resazurin was added in each well. After 30 min at 37 °C, the fluorescence was measured at λex = 550 nm and λem = 590 nm. The results are expressed as % reduction in cell growth/viability compared to control wells, and IC50 values were determined.

[1] = system: MRC-5 human fetal lung fibroblasts; experiment: Cytotoxicity on MRC-5 cells; format: cell-based; settings: MRC5, MRC-5, reference validation of the screening panel
Description: as §1, with “Briefly, S. aureus and E. coli were cultured in MHT (Mueller Hinton Broth) and maintained on TSA (Tryptone Soy Agar). […] The T. b. brucei Squib 427 strain (suramine-sensitive) and T. b. rhodesiense STIB-900 strain were maintained in Hirumi’s Modified Iscove’s medium-9 (HMI-9) medium, supplemented with 10% inactivated fetal calf serum. […] All cultures were incubated at 37 °C under an atmosphere of 5% CO2. The assays” for “The assays”

IC50 (Aspergillus fumigatus) [µg/mL] | SMILES | IC50 [1] [µg/mL]
1.18 (≈ 2.84 µM) | Clc1ccc(COC(Cn2ccnc2)c2ccc(Cl)cc2Cl)c(Cl)c1 (centres unmarked) [Miconazole] | 
 | CC/C(=C(\c1ccccc1)c1ccc(OCCN(C)C)cc1)c1ccccc1 [Tamoxifen] | 3.72 (≈ 10 µM)
